# Test system: mouse twisting model induced by acetic acid
# Details: in vivo
# Procedure: 1. In Vivo Analgesic Activity in Mouse Twisting Model Induced by Acetic Acid.
# In mouse twisting model: The glacial acetic acid as the chemical irritant is injected into the mouse stomach, which causes a deep and large area and lasting pain stimulus for animal which has a “twist body” reaction, such as abdominal cove, torso and legs spread out, hip high up.
# Equal numbers of male and female mice, whose weight were about […], were divided into groups by random. Each group consisted of eight mice. 0.2 ml/20 g of 0.6% (v/v) of acetic acid, which caused visceral pain, was intraperitoneally injected after the test sample was injected into the stomach of mouse for 20 minutes. The writhing times of the mouse were recorded for 10 min after the acetic acid was injected for 5 min. […] The inhibition of writhing response inhibition for each test group was calculated by the following formula: […]
smiles,measurement,setting,value
"CN1CC[C@]23c4c5ccc(O)c4O[C@H]2[C@@H](O)C=C[C@H]3[C@H]1C5 [morphine, reference compound]",inhibition of writhing,,35.75%
same,writhing times (Mean±SEM),ip,29.12±1.76

# — US9127075B2, “Analgesic active peptide VGG, preparation and use thereof” (priority 2010, dated 2015)
